Experimental data: patent US8754079B2, “Cycloalkyl containing thienopyrimidines for pharmaceutical compositions” (Boehringer Ingelheim International GmbH, priority 2010, dated 2014)
Structures were worked out from names or drawings and are uncertain.

Chains of the proteins cited; added tags and fusions are not shown.
UniProt Q9HBH9, whole entry: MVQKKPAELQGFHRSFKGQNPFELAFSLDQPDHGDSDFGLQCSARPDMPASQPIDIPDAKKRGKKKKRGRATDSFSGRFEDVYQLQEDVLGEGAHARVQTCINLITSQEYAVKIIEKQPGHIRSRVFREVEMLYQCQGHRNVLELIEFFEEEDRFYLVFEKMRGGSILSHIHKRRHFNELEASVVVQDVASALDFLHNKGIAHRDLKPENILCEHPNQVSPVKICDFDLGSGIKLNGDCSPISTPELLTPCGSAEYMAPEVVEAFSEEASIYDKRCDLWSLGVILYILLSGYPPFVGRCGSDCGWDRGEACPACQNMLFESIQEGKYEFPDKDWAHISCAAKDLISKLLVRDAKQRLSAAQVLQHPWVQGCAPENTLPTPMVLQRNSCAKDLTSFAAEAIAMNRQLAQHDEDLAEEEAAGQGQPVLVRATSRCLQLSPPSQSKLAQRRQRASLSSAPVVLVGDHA

Molecular target: MNK2 (Homo sapiens, UniProt Q9HBH9)
Assay: Mnk2a in vitro kinase assay (indirect fluorescence polarization)
Format: biochemical
Settings: read-out: MNK2 IC50; pre-activated GST-Mnk2a 2.5 nM, 20 μM ATP, 30 μM substrate peptide
Method: Inhibitory potency of compounds against Mnk1, Mnk2a and other kinases was assessed with assays based on a format known to those skilled in the art as the indirect (competitive) fluorescence polarization. The assay detection system comprises a small fluorophore-labeled phospho-peptide (termed ligand) bound to a phospho-specific antibody. The product generated by the kinase reaction competes with the ligand for antibody binding. Based on the larger molecular volume of the bound ligand, which results in a lower rotation rate in solution, its emitted light has a higher degree of polarization than the one from the free ligand.
Example 2a. Mnk1 and Mnk2a in vitro kinase assay
As a source of enzyme, human Mnk1 and human Mnk2a were expressed as GST fusion proteins in E. coli, purified to >80% homogeneity by glutathione affinity chromatography and activated in vitro with pre-activated ERK2. In brief, the open reading frames of human Mnk1 and Mnk2a were amplified from cDNA using the forward/reverse primer pairs
(utilized restriction sites underlined), respectively, and cloned into the BamHI and SalI sites of the vector pGEX-4T1 (Amersham, Sweden, cat. no. 27-4580-01). These constructs allow prokaryotic expression of Mnk1 or Mnk2a as fusion protein with a N-terminal glutathione S-transferase (GST) tag, referred to as GST-Mnk1 or GSTMnk2a. […]

IC50: 0.012 µM
Structure (SMILES): Cc1c(C(N)=O)sc2ncnc(Nc3ccc(F)cc3O[C@H]3C[C@@H](O)[C@@H](O)C3)c12 (relative stereo)
